The labels stand for the following.
B1: Sept7 (endogenous) (protein, UniProt Q16181 1-437)
chain: MSVSARSAAAEERSVNSSTMVAQQKNLEGYVGFANLPNQVYRKSVKRGFEFTLMVVGESGLGKSTLINSLFLTDLYSPEYPGPSHRIKKTVQVEQSKVLIKEGGVQLLLTIVDTPGFGDAVDNSNCWQPVIDYIDSKFEDYLNAESRVNRRQMPDNRVQCCLYFIAPSGHGLKPLDIEFMKRLHEKVNIIPLIAKADTLTPEECQQFKKQIMKEIQEHKIKIYEFPETDDEEENKLVKKIKDRLPLAVVGSNTIIEVNGKRVRGRQYPWGVAEVENGEHCDFTILRNMLIRTHMQDLKDVTNNVHYENYRSRKLAAVTYNGVDNNKNKGQLTKSPLAQMEEERREHVAKMKKMEMEMEQVFEMKVKEKVQKLKDSEAELQRRHEQMKKNLEAQHKELEEKRRQFEDEKANWEAQQRILEQQNSSRTLEKNKKKGKIF
B2: Sept9_i1 (endogenous) (protein, UniProt Q9UHD8 1-586)
chain: MKKSYSGGTRTSSGRLRRLGDSSGPALKRSFEVEEVETPNSTPPRRVQTPLLRATVASSTQKFQDLGVKNSEPSARHVDSLSQRSPKASLRRVELSGPKAAEPVSRRTELSIDISSKQVENAGAIGPSRFGLKRAEVLGHKTPEPAPRRTEITIVKPQESAHRRMEPPASKVPEVPTAPATDAAPKRVEIQMPKPAEAPTAPSPAQTLENSEPAPVSQLQSRLEPKPQPPVAEATPRSQEATEAAPSCVGDMADTPRDAGLKQAPASRNEKAPVDFGYVGIDSILEQMRRKAMKQGFEFNIMVVGQSGLGKSTLINTLFKSKISRKSVQPTSEERIPKTIEIKSITHDIEEKGVRMKLTVIDTPGFGDHINNENCWQPIMKFINDQYEKYLQEEVNINRKKRIPDTRVHCCLYFIPATGHSLRPLDIEFMKRLSKVVNIVPVIAKADTLTLEERVHFKQRITADLLSNGIDVYPQKEFDEDSEDRLVNEKFREMIPFAVVGSDHEYQVNGKRILGRKTKWGTIEVENTTHCEFAYLRDLLIRTHMQNIKDITSSIHFEAYRVKRLNEGSSAMANGMEEKEPEAPEM
B3: Sept2 (endogenous) (protein, UniProt Q15019 1-361)
chain: MSKQQPTQFINPETPGYVGFANLPNQVHRKSVKKGFEFTLMVVGESGLGKSTLINSLFLTDLYPERVIPGAAEKIERTVQIEASTVEIEERGVKLRLTVVDTPGYGDAINCRDCFKTIISYIDEQFERYLHDESGLNRRHIIDNRVHCCFYFISPFGHGLKPLDVAFMKAIHNKVNIVPVIAKADTLTLKERERLKKRILDEIEEHNIKIYHLPDAESDEDEDFKEQTRLLKASIPFSVVGSNQLIEAKGKKVRGRLYPWGVVEVENPEHNDFLKLRTMLITHMQDLQEVTQDLHYENFRSERLKRGGRKVENEDMNKDQILLEKEAELRRMQEMIARMQAQMQMQMQGGDGDGGALGHHV

No constants are given. Whether binding was seen depends on the method and setting. Binding seen in cells or lysates may run through a third protein. Binding calls can cover weak binding; strength is not graded here.

The assay concerns the target paclitaxel-microtubules (human (endogenous in SKBr3)). The experiment in a line: co-sedimentation; SKBr3 cytosolic extract (0.1 M MES pH 6.9, 1 mM EGTA, 1 mM MgCl2, 0.5% NP40, 1 mM DTT) with 10 uM paclitaxel 30 min at 30 °C; 80000 g, 30 min, 30 °C through a 10% sucrose cushion; supernatant and pellet by Western blot. In general terms: Immunoblotting shows a protein as a band on a membrane.
B1: the binding entry was “binds weakly”.
Regarding B2, the binding entry was “binds”.
Consider B3, for which the binding result is “binds weakly”.

Source of the values: publication PMC5364497.
